Experimental data from PubChem BioAssay AID493014 (National Center for Advancing Translational Sciences (NCATS), 2011).
The list shows a part of the results. Shown are side measurements of this screen, not its main read-out; they come without a call. Most of these compounds were active or inconclusive in the main read-out, so they are no random draw. Potencies come from curve fits of mixed quality, noted in brackets.

Experiment: qHTS Assay to Find Inhibitors of Chronic Active B-Cell Receptor Signaling
Details: ABC-DLBCL IkBa-CBG/CBR reporter, luminescence ratio (green luciferase fused to IkBa over red control in TMD8 lymphoma cells), 4 h
Excerpt: NIH Molecular Libraries Probe Production Network [MLPCN] NIH Chemical Genomics Center [NCGC] MLPCN Grant: 1 R03 DA031086-01A1 PI Name: Dr. R. Eric Davis NCGC Assay Overview: Diffuse large B-cell lymphoma (DLBCL) is the most common category of non-Hodgkin lymphoma, with ~20,000 new cases per year in the United States. DLBCL should be regarded as a collection of different neoplasms. Microarray gene expression analysis has defined two principal types of DLBCL, named for their similarity to normal B cell stages or activation states: a germinal center B-cell (GCB) type, and an activated B-cell (ABC) type. In ABC-DLBCL, a constitutive high-level activity of the NF-kappaB family of transcription factors has been observed (1) and NF-kappaB target genes are more highly expressed in ABC primary tumors than in GCB tumors. Functional studies have shown a constitutive high-level activity of the IkappaB (inhibitor of kappa-B) kinase (IKK) complex. […] Further analysis of DLBCL primary tumors for NF-kappaB target gene expression imply that although CARD11 is required for constitutive IKK activity in all ABC-DLBCL lines, mutations in CARD11 may be the root cause of IKK activation only in lines or tumors with such mutations. In other words, CARD11 mutations may explain NF-kappaB activation in only 10% of ABC-DLBCL cases. […] This process has been termed 'chronic active BCR signaling' (CABS). The goal of this screen is to find small-molecule inhibitors of the CABS pathway found in ABC-DLBCL lines using a cell-based assay that measures IkappaBalpa stability, which has already been extensively validated in the OCI-Ly3 line (PubChem AID:445; REF: 4). […] The assay uses green (CBG68) and red (CBR) emitting beetle luciferases [Chroma-GloTM developed by Promega Corp.] where the green luciferase is fused to IkappaBalpha and the red luciferase is present in its native state. Both luciferase genes are stably present in the TMD8 human ABC DLBCL cell line, but their expression is under the control of tetracycline-inducible promoters. Following the addition of doxycycline to induce expression of the luciferases, the green luminescence in control cultures rises only slowly because the CBG fusion partner IkappaBalpha is targeted by IKK activity for rapid degradation. In contrast, green luminescence rises rapidly in the presence of proteasome inhibitors or IKK inhibitors. The rise in red luminescence of CBR is not affected by proteasome or IKK inhibitors, and serves as normalization for cell number and nonspecific effects. Compounds were screened as a concentration-titration series that ranged from 46 uM to 3 nM.
NCGC Assay Protocol Summary: Cells were seeded in 1536-well plates at 5000 cells/4uL in IMDM medium containing 0.5% FBS, w/o phenol red, 1% penicillin/streptomycin. Then, 23 nL of compounds or DMSO were delivered to each well using a pin tool. One uL 20ng/ml doxycycline was then dispensed into white solid 1536-well plates and the plates were incubated at 37C/5% C02 in a cell incubator for 4 hrs. Then 4 uL luminescent substrate mix (in-house prepared: 150 mM Tris-Cl, pH 7.6, 3 mM MgCl2, 1% Triton X-100, 5 mM DTT, 0.2 mM CoA, 0.15 mM ATP, 5 mM D-luciferin, final concentrations) was added to each well. The plate was incubated at r.t. for 10-15 min. The plates were measured on a ViewLux plate reader for green luminescence (540/20 nm filter) and red luminescence (618/8 nm filter). The green and red luminescent signals were corrected for red and green luminescence filter overlap using previously determined filter calibration constants (determined using the procedure outlined in the Promega Technical Manual; REF 4). The %Activity was determined from the ratio of corrected green/red luminescent values. MG132 were used as control. […] Red luminescent %Activity was normalized to the difference between red luminesence in basal cells (0%Activity) and zero luminescence (-100% Activity). […]

[1] = measured here: CBR red luminescence, cell number
[2] = measured here: IkBa-CBG green luminescence

| SMILES | AC50 [1] | AC50 [2] |
| --- | --- | --- |
| CC1=C(C(=O)OC2CCCCC2)C(c2ccc(F)cc2)NC(=O)N1 (stereo not drawn) | 35.5 µM [falling, single point] |  |
| CN(C)CCCNc1oc(-c2cccc(Cl)c2)nc1C#N | 7.31 µM [rising, partial curve, poor fit] |  |
| CC1CCCN(C(=S)NC2CCCC2)C1 (stereo not drawn) | 22.4 µM [rising, single point] |  |
| Cc1cc(C)cc(Nc2nc3c([nH]2)c(=O)n(C)c(=O)n3C)c1 | 0.501 µM [falling, full curve] |  |
| CCc1nc(N2CCN(C(=S)NCCCOC)CC2)c2c3c(sc2n1)CCCC3 | 14.1 µM [falling, single point] |  |
| CCCCOC(=O)c1ccc(NC(=O)C(=O)NCc2ccco2)cc1 | 2 µM [falling, partial curve, poor fit] |  |
| CC(C)Cn1c(N)c(C(=O)COC(=O)c2ccc(O)cc2)c(=O)n(C)c1=O | 11.2 µM [falling, single point] |  |
| CCN(CC)c1ccc(/C=C/c2nc3ccccc3s2)cc1 | 1.78 µM [falling, full curve, poor fit] |  |
| O=C(Nc1ccc(Br)cc1Cl)c1cnccn1 | 0.651 µM [rising, full curve, poor fit] |  |
| COC(=O)C1=C(C)NC(=O)/C1=C\c1cc(C)n(-c2ccc(F)cc2)c1C | 35.5 µM [falling, single point] |  |
| COC(=O)c1[nH]c2cc(OC)ccc2c1NC(=O)CCN1CCN(Cc2ccc3c(c2)OCO3)CC1 | 32.6 µM [rising, partial curve, poor fit] |  |
| N/C(=N\OC(=O)c1ccccc1Cl)c1ccccn1 | 15.8 µM [falling, single point] |  |
| COc1ccccc1NC(=S)NC(=O)Cc1ccc(Cl)cc1 | 3.98 µM [falling, partial curve, poor fit] |  |
| Cc1oc(-c2ccccc2)nc1C(=O)O |  | 1.78 µM [rising, full curve, poor fit] |
| Cc1cccc(C)c1NC(=O)/C(C#N)=C/c1ccc(-c2ccc(C(=O)O)cc2)o1 | 10 µM [falling, partial curve, poor fit] |  |
| Cc1cc(N)c2cc(NC(=O)/C=C/c3ccccc3Cl)ccc2n1 | 17.8 µM [rising, single point] |  |
| Cc1cc2ncn(C(=O)N3CCOCC3)c2cc1C | 7.31 µM [rising, partial curve, poor fit] |  |
| C/C(=N\NC(=O)c1cc(C)oc1C)c1ccc(C)c([N+](=O)[O-])c1 | 1.84 µM [falling, full curve] |  |
| O=C(/C=C/c1ccc(S(=O)(=O)N2CCOCC2)cc1)N1CCN(c2ccc(F)cc2)CC1 | 22.4 µM [falling, partial curve, poor fit] |  |
| CCOC(=O)c1nnn(-c2nonc2N)c1-c1ccc(OC)cc1 | 0.517 µM [rising, full curve, poor fit] |  |
| Cc1ccc(CSc2nnc(-c3ccccc3N)c(=O)[nH]2)cc1 | 25.9 µM [falling, single point] |  |

| SMILES | AC50 [1] | AC50 [2] |
| --- | --- | --- |
| COc1ccc(OC)c(C(=O)COC(=O)C2CC3CCCC(C2)C3=O)c1 (stereo not drawn) | 13 µM [rising, partial curve] |  |
| CCOC(=O)c1sc(=NC(=O)c2ccc(Br)cc2)n(C)c1C | 7.08 µM [falling, full curve] |  |
| Cc1ccc2c(c1)nnn2C1CCN(C(=O)C23CC4CC(CC(C4)C2)C3)CC1 | 3.66 µM [rising, full curve, poor fit] |  |
| Cc1cc(C)nc(Nc2n[nH]c(-c3ccccc3C)n2)n1 | 1.41 µM [falling, full curve] |  |
| CC(=O)[C@@H]1[C@@H]2C(=O)N(c3ccccc3F)C(=O)[C@@H]2[C@H]2c3ccccc3C=NN12 | 17.8 µM [falling, partial curve] |  |
| Cc1onc(-c2c(Cl)cccc2Cl)c1C(=O)N/N=C(\N)COc1ccc(Cl)cc1 | 14.6 µM [falling, partial curve, poor fit] |  |
| COc1ccc(NC(=O)c2cccnc2SC)cc1OC | 10 µM [falling, partial curve] |  |
| CCOCCc1nnc(NC(=O)c2cc(OC)c(OC)c(OC)c2)s1 | 6.51 µM [rising, partial curve, poor fit] |  |
| Cc1ccc(C(=O)NCC(=O)N2CCN(c3ncccn3)CC2)s1 | 20.6 µM [rising, single point] |  |
| COc1ccc(-n2c(SCCC(=O)O)nnc2-c2ccncc2)cc1 | 0.461 µM [falling, partial curve, poor fit] |  |
| O=C(Oc1ccc(Cl)c2cccnc12)c1ccco1 | 6.51 µM [falling, single point] | 25.9 µM [falling, single point] |
| O=C(COC(=O)C1(c2ccc(F)cc2)CCCC1)NCc1ccco1 | 22.4 µM [falling, partial curve, poor fit] |  |
| O=C(Nc1ccccc1)c1ccccc1O | 14.1 µM [falling, partial curve] |  |
| CCCCOC(=O)n1c(=S)oc2cc(Cl)ccc21 | 11.2 µM [falling, partial curve] |  |
| CC(=O)NS(=O)(=O)c1ccc(NC(=O)/C=C/c2ccc(C)o2)cc1 | 11.2 µM [falling, partial curve, poor fit] |  |
| COc1cc(NC(=S)NCCc2c[nH]c3ccccc23)c(OC)cc1Cl | 29.1 µM [falling, single point] |  |
| Clc1ccc(SCc2nc3ccccc3[nH]2)cc1 | 8.91 µM [falling, partial curve, poor fit] |  |
| COC(=O)c1ccc(NC(=O)c2ccccc2N(C)S(=O)(=O)c2ccccc2)cc1 | 0.146 µM [falling, full curve, poor fit] |  |
| CC1(c2ccccc2)NC(=O)N(CC(=O)Nc2ccc(S(N)(=O)=O)cc2)C1=O (stereo not drawn) | 35.5 µM [rising, single point] |  |
| Cc1cc(N/N=C/c2ccccc2O)c2ccccc2n1 | 11.2 µM [falling, partial curve] |  |
| COC(=O)C1C(O)=C(C=NCC(C)N=CC2=C(O)C(C(=O)OC)C(C)(C)CC2=O)C(=O)CC1(C)C (stereo not drawn) | 15.8 µM [rising, single point] |  |

Reprinted at random: three records from the list

| SMILES | AC50 [1] | AC50 [2] |
| --- | --- | --- |
| Cc1ccc2c(c1)nnn2C1CCN(C(=O)C23CC4CC(CC(C4)C2)C3)CC1 | 3.66 µM [rising, full curve, poor fit] |  |
| Cc1onc(-c2c(Cl)cccc2Cl)c1C(=O)N/N=C(\N)COc1ccc(Cl)cc1 | 14.6 µM [falling, partial curve, poor fit] |  |
| Cc1ccc(C(=O)NCC(=O)N2CCN(c3ncccn3)CC2)s1 | 20.6 µM [rising, single point] |  |
